This test deals with P388 leukemia ip, CD2F1 mice, survival T/C. As to the kind of experiment: NCI In Vivo Anticancer Drug Screen. Data for tumor model P388 Leukemia (intraperitoneal) in CD2F1 (CDF1) mice. As to conditions: T/C endpoint: median survival time, higher T/C = longer survival.

Each structure is given as a SMILES string. The list is a part of this screen's results and no random one: it is rich in T/C values a quarter to a half above the control, in often repeated tests (any T/C) and in doses without a T/C. Other doses and runs of a compound stand elsewhere. T/C is the treated group as % of the vehicle group. Some doses have a count of surviving animals in place of a T/C: the source holds a T/C of zero for them, seemingly a mark for toxic or unscored doses. Some survivor counts are full or nearly so, which does not show that the dose was tolerated: survival well below the control is almost never listed, so the zero probably covers shortened survival too. Survivors were counted at the toxicity check, usually on the fifth day, unless a day is given; later deaths do not show. Schedules are NCI's codes, taken here to give the interval after Q, in days (D) or hours (H), and the number of doses after X. Some entries were tested several times; the results are listed from low to high. For survival time, this PubChem deposit counts one and a half times the control or more as active, and values a quarter to a half above the control carry no call in these data; other NCI protocols may use other cut-offs. Some T/C values are followed by the survivors on the day toxicity was checked, most often the fifth; where none is given, no animal had died by that day.

For the compound `Cc1[nH]c(=O)[nH]c(=O)c1N(CCF)CCCl`, the T/C runs as follows: (dose: 8.0 mg/kg/injection, schedule: Q01DX005 (ip), vehicle: Klucel (hydroxypropylcellulose) (HPC)) 137 % of control; (dose: 8.0 mg/kg/injection, schedule: Q03HX024 (ip), vehicle: acid diluted with saline) 125 % of control; (dose: 8.4 mg/kg/injection, schedule: Q01DX009 (ip), vehicle: saline with Tween-80) 145 % of control; (dose: 16.0 mg/kg/injection, schedule: Q01DX001 (ip), vehicle: saline) 127 % of control; (dose: 16.5 mg/kg/injection, schedule: Q04DX003 (ip), vehicle: saline with Tween-80) 133 % of control; (dose: 25.0 mg/kg/injection, schedule: Q04DX003 (ip), vehicle: saline with Tween-80) 133 % of control. Further, the T/C reads like this: (dose: 32.0 mg/kg/injection, schedule: Q01DX001 (ip), vehicle: acid diluted with saline) 127 and 131 % of control; (dose: 32.0 mg/kg/injection, schedule: Q01DX001 (ip), vehicle: saline) 136 % of control; (dose: 32.0 mg/kg/injection, schedule: Q01DX009 (oral), vehicle: other) 127 % of control; (dose: 32.0 mg/kg/injection, schedule: Q01DX009 (sc), vehicle: acid diluted with saline) 137 % of control; (dose: 64.0 mg/kg/injection, schedule: Q01DX001 (ip), vehicle: acid diluted with saline) 131 and 136 % of control; (dose: 64.0 mg/kg/injection, schedule: Q01DX009 (oral), vehicle: acid diluted with saline) 127 % of control. Besides, the T/C (dose: 64.0 mg/kg/injection, schedule: Q01DX009 (oral), vehicle: other) is 130 % of control [8 of 10 alive]; the T/C (dose: 128.0 mg/kg/injection, schedule: Q04DX003 (oral), vehicle: acid diluted with saline) was 127 % of control; the T/C (dose: 128.0 mg/kg/injection, schedule: Q04DX003 (oral), vehicle: other) was 141 % of control [9 of 10 alive]; the T/C (dose: 128.0 mg/kg/injection, schedule: Q08DX002 (oral), vehicle: other) was 130 % of control [7 of 10 alive]. Besides, the survivor count reads like this: (dose: 32.0 mg/kg/injection, schedule: Q01DX005 (iv), vehicle: Klucel (hydroxypropylcellulose) (HPC)) 3 of 6; (dose: 32.0 mg/kg/injection, schedule: Q03HX008 (oral), vehicle: acid diluted with saline) 5 of 10; (dose: 32.0 mg/kg/injection, schedule: Q03HX008 (oral), vehicle: other) 0 of 10; (dose: 32.0 mg/kg/injection, schedule: Q03HX016 (oral), vehicle: other) 0 of 10; (dose: 32.0 mg/kg/injection, schedule: Q03HX024 (oral), vehicle: acid diluted with saline) 6 of 10; (dose: 32.0 mg/kg/injection, schedule: Q03HX024 (oral), vehicle: other) 0 of 10. Moreover, the survivor count was 6 of 6 (dose: 37.5 mg/kg/injection, schedule: Q04DX003 (ip), vehicle: saline with Tween-80); 1 of 10 (dose: 39.0 mg/kg/injection, schedule: Q01DX009 (ip), vehicle: saline with Tween-80); 0 of 6 (dose: 64.0 mg/kg/injection, schedule: Q01DX005 (ip), vehicle: Klucel (hydroxypropylcellulose) (HPC)); 0 of 6 (dose: 64.0 mg/kg/injection, schedule: Q01DX005 (iv), vehicle: Klucel (hydroxypropylcellulose) (HPC)); 1 of 10 (dose: 64.0 mg/kg/injection, schedule: Q03HX008 (oral), vehicle: acid diluted with saline); 0 of 10 (dose: 64.0 mg/kg/injection, schedule: Q03HX008 (oral), vehicle: other). In addition, the survivor count is 0 of 10 (dose: 64.0 mg/kg/injection, schedule: Q03HX016 (oral), vehicle: acid diluted with saline); 0 of 10 (dose: 64.0 mg/kg/injection, schedule: Q03HX016 (oral), vehicle: other); 0 of 10 (dose: 64.0 mg/kg/injection, schedule: Q03HX024 (oral), vehicle: other); 10 of 10 (dose: 64.0 mg/kg/injection, schedule: Q04DX003 (ip), vehicle: acid diluted with saline); 2 of 6 (dose: 100.0 mg/kg/injection, schedule: Q04DX003 (ip), vehicle: saline with Tween-80); 0 of 10 and 4 of 10 (dose: 128.0 mg/kg/injection, schedule: Q01DX001 (ip), vehicle: acid diluted with saline). Moreover, the survivor count (dose: 128.0 mg/kg/injection, schedule: Q01DX001 (ip), vehicle: saline) is 3 of 10 and 5 of 10; the survivor count (dose: 128.0 mg/kg/injection, schedule: Q01DX001 (oral), vehicle: other) is 4 of 10; the survivor count (dose: 128.0 mg/kg/injection, schedule: Q01DX009 (oral), vehicle: other) is reported as 1 of 10; the survivor count (dose: 128.0 mg/kg/injection, schedule: Q03HX008 (oral), vehicle: acid diluted with saline) is 0 of 10; the survivor count (dose: 128.0 mg/kg/injection, schedule: Q03HX008 (oral), vehicle: other) was 0 of 10; the survivor count (dose: 128.0 mg/kg/injection, schedule: Q03HX016 (oral), vehicle: acid diluted with saline) is given as 0 of 10. Also, the survivor count was 0 of 10 (dose: 128.0 mg/kg/injection, schedule: Q03HX016 (oral), vehicle: other); 2 of 10 (dose: 128.0 mg/kg/injection, schedule: Q08DX002 (ip), vehicle: acid diluted with saline); 0 of 6 (dose: 200.0 mg/kg/injection, schedule: Q04DX003 (ip), vehicle: saline with Tween-80); 0 of 10 (dose: 256.0 mg/kg/injection, schedule: Q01DX001 (ip), vehicle: acid diluted with saline); 0 of 10 (dose: 256.0 mg/kg/injection, schedule: Q01DX001 (oral), vehicle: other); 0 of 10 (dose: 256.0 mg/kg/injection, schedule: Q01DX009 (oral), vehicle: other). Besides, the survivor count is listed as 0 of 10 (dose: 256.0 mg/kg/injection, schedule: Q04DX003 (oral), vehicle: other); 0 of 10 (dose: 256.0 mg/kg/injection, schedule: Q08DX002 (oral), vehicle: other); 0 of 6 (dose: 400.0 mg/kg/injection, schedule: Q04DX003 (ip), vehicle: saline with Tween-80); 0 of 10 (dose: 512.0 mg/kg/injection, schedule: Q01DX001 (oral), vehicle: other); 0 of 10 (dose: 512.0 mg/kg/injection, schedule: Q04DX003 (oral), vehicle: other); 0 of 10 (dose: 512.0 mg/kg/injection, schedule: Q08DX002 (oral), vehicle: other). Besides, the survivor count by setting is: (dose: 1024.0 mg/kg/injection, schedule: Q01DX001 (oral), vehicle: acid diluted with saline) 0 of 10; (dose: 1024.0 mg/kg/injection, schedule: Q01DX001 (oral), vehicle: other) 0 of 10; (dose: 1024.0 mg/kg/injection, schedule: Q08DX002 (oral), vehicle: acid diluted with saline) 0 of 10; (dose: 1024.0 mg/kg/injection, schedule: Q08DX002 (oral), vehicle: other) 0 of 10.
Consider `CC(CC1CCCCC1)NCCC(c1ccccc1)c1ccccc1` (centres undefined), for which the survivor count (dose: 50.0 mg/kg/injection, schedule: Q01DX009 (ip), vehicle: Klucel (hydroxypropylcellulose) (HPC)) was 0 of 6 and 3 of 6; the survivor count (dose: 100.0 mg/kg/injection, schedule: Q01DX009 (ip), vehicle: Klucel (hydroxypropylcellulose) (HPC)) is 0 of 6; the survivor count (dose: 200.0 mg/kg/injection, schedule: Q01DX009 (ip), vehicle: Klucel (hydroxypropylcellulose) (HPC)) is 0 of 6.
As for `CC(=O)NCc1cc(C)c(CBr)cc1CBr`, the survivor count is, setting by setting: (dose: 12.5 mg/kg/injection, schedule: Q01DX009 (ip), vehicle: distilled water + Tween-80) 5 of 6; (dose: 25.0 mg/kg/injection, schedule: Q01DX009 (ip), vehicle: distilled water + Tween-80) 0 of 6; (dose: 50.0 mg/kg/injection, schedule: Q01DX009 (ip), vehicle: distilled water + Tween-80) 0 of 6; (dose: 100.0 mg/kg/injection, schedule: Q01DX009 (ip), vehicle: distilled water + Tween-80) 0 of 6; (dose: 200.0 mg/kg/injection, schedule: Q01DX009 (ip), vehicle: distilled water + Tween-80) 0 of 6.

The values are drawn from PubChem BioAssay AID330 (DTP/NCI, 2004).
